The text below walks through data of publication PMC8542041.

Protein sequences, listed by entry. Tags and fused reporters are not part of them.
UniProt Q16186: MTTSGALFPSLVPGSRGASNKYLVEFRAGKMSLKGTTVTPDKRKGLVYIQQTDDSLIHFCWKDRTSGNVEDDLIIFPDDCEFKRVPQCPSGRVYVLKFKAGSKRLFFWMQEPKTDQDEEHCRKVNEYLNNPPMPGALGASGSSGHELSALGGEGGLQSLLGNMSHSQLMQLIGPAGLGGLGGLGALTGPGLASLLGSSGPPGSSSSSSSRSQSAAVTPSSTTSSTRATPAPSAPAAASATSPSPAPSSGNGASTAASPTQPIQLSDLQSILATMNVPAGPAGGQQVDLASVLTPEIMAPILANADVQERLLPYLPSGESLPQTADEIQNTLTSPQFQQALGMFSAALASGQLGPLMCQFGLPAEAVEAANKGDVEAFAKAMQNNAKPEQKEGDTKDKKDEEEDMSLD

No constants are given. Whether binding was seen depends on the method and setting. In cells and extracts the contact can be indirect. Some binding calls cover weakened binding; strength is not graded here.

For this experiment, the target named is T1, Kinectin1 (KTN1) (human (endogenous in A431 and HSC-5)) (UniProt Q86UP2).
T1 sequence: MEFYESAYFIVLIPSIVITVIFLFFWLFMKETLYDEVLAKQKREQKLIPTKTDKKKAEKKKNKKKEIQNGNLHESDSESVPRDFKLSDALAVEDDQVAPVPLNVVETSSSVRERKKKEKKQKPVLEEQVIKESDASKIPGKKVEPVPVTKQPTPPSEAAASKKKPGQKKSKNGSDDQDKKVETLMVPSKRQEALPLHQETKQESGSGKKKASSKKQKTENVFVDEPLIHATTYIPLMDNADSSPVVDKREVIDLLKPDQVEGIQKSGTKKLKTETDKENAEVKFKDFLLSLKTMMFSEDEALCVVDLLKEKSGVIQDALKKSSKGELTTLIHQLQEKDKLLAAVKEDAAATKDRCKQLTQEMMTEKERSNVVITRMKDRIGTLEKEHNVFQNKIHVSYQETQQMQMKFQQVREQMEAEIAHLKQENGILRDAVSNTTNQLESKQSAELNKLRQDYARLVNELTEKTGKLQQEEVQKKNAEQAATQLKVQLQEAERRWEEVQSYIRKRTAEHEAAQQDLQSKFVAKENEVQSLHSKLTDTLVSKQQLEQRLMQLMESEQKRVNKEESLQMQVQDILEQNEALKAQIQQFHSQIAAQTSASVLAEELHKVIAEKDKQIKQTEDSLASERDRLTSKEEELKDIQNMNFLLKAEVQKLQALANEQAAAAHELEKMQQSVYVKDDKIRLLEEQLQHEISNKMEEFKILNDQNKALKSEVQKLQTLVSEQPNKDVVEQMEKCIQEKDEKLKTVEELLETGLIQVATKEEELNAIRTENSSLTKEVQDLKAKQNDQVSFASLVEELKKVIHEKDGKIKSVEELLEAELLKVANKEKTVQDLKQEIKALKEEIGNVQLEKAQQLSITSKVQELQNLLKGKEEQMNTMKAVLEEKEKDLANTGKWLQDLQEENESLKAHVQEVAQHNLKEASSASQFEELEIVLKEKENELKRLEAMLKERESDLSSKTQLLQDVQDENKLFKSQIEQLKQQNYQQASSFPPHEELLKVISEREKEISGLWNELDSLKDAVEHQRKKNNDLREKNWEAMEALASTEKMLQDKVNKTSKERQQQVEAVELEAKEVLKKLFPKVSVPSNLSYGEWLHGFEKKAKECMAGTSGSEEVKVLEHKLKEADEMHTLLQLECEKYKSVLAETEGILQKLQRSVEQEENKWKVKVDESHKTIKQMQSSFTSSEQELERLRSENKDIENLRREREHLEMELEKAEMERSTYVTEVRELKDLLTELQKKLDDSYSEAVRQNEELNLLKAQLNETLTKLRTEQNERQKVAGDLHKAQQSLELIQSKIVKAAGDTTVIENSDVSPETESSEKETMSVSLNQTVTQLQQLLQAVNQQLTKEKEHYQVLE
As to the kind of experiment: co-IP; endogenous proteins in total lysates of A431 and HSC-5 cells; IP and immunoblotting with anti-PSMA1-7, anti-ADRM1 or anti-KTN1; for PSMA1-ADRM1 the cells were transfected with siKTN1 or siNC. In general terms: A western blot detects proteins with antibodies after separation by electrophoresis.

For the substance “adhesion regulating molecule 1 (ADRM1) (from UniProt Q16186 1-407)”, the binding result was “binds”.
